Experimental data from PubChem BioAssay AID2685 (National Center for Advancing Translational Sciences (NCATS), 2010).
The list shows a part of the results. These are further read-outs of the screen, such as a control signal, another cell line or another target. No call is given for them. The list favours compounds with an active or inconclusive main result. Words in brackets tell the shape of the fitted curve; partial curves, single points and poor fits give uncertain potencies.

Assay: qHTS Assay for Lipid Storage Modulators in Drosophila S3 Cells;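 for cell number change: cells counted by Cell Tracker Red CMTPX staining in the red channel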
Conditions: BODIPY lipid droplet fluorescence, 18-24 h; for cell number change: measured here: cell count max response, cells fed with added oleic acid
Outline: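 Drosophila S3 cells loaded with oleic acid (400 uM, as added) and compounds at several concentrations; lipid droplets imaged by 488-nm laser-scanning cytometry, 500–530 nm intensity and object ratio to cell channel. Percent activity normalized to 20 uM Triacsin C.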

[1] = measured here: cell number channel AC50, cells fed with added oleic acid
[2] = measured here: lipid fluorescence (Fed channel) AC50, cells fed with added oleic acid

| Compound | cell number change [%] | AC50 [1] | AC50 [2] |
| --- | --- | --- | --- |
| COc1cc(NC(=O)c2ccccc2-n2cnnn2)cc(OC)c1 | 11.6 | – | – |
| O=C(Nc1ccc(Br)cc1Cl)Nn1cnnc1 | -31 | 1.64 µM [falling, full curve] | 29.1 µM [falling, single point] |
| O=C(NC1CCCc2ccccc21)C1CCN(S(=O)(=O)c2cccc3nsnc23)CC1 (configuration not stated) | – | 2.31 µM [rising, single point] | – |
| CCN1C(=O)/C(=C/c2cnn(CC)c2C)SC1=S | 15.7 | 2.06 µM [rising, single point] | 2.06 µM [rising, partial curve, poor fit] |
| CCOC(=O)N1CC=C2C(C#N)=C(N)C(C#N)(C#N)[C@H](c3ccc(OCC)c(OCC)c3)[C@H]2C1 | -37.1 | – | 0.13 µM [rising, full curve, poor fit] |
| O=C(Nc1ccccc1C(F)(F)F)c1ccc(CN2CCC(Cc3ccccc3)CC2)cc1 | -31.2 | 14.6 µM [falling, partial curve] | – |
| Cc1cc(/C=C(\C#N)C(=O)Nc2ccccc2)c(C)n1-c1ccc2c(c1)OCO2 | – | 1.46 µM [rising, full curve] | 0.58 µM [rising, full curve] |
| O=C(Nc1ccccc1)c1cccnc1Nc1ccccc1 | -10.4 | – | 0.517 µM [rising, partial curve] |
| CC[C@H]1OC(=O)[C@H](C)[C@@H](O[C@H]2C[C@@](C)(OC)[C@@H](O)[C@H](C)O2)[C@H](C)[C@@H](O[C@@H]2O[C@H](C)C[C@H](N(C)C)[C@H]2O)[C@](C)(O)C[C@@H](C)C(=O)[C@H](C)[C@@H](O)[C@]1(C)O | 13.2 | – | – |
| C/C(=N\NC(=O)c1cc(O)ccc1O)c1cccc(NC(=O)c2ccc(Cl)cc2)c1 | -22.6 | – | 6.51 µM [rising, single point] |
| O=C(NCc1ccc(F)cc1)N[C@@H](Cc1ccccc1)C(=O)O | -8.57 | – | 5.17 µM [falling, partial curve, poor fit] |
| CCC1(c2ccccc2)NC(=O)N(CC(=O)NCc2ccc(F)cc2)C1=O (configuration not stated) | 29.4 | – | 18.4 µM [rising, partial curve] |
| CCCCn1c(N)c(N(CCOC)C(=O)COc2ccc(Cl)cc2)c(=O)[nH]c1=O | -12.9 | 0.00461 µM [falling, full curve, poor fit] | – |
| CCN(CC)c1ccc(/C=N/NC(=O)c2cccc(S(=O)(=O)Nc3ccccc3OC)c2)c(O)c1 | -19.3 | – | 10.3 µM [falling, partial curve, poor fit] |
| CCOC(=O)c1cnc2c(C(=O)OC)cccc2c1NCCN1CCOCC1 | -3.35 | – | 20.6 µM [rising, single point] |
| O=C(Nc1ccc(CN2CCOCC2)cc1)c1cc(Cl)ccc1Cl | 5.96 | – | 29.1 µM [falling, single point] |
| O=C1NC(=O)N(c2ccccc2)C1=O | – | – | 0.1 µM [rising, full curve, poor fit] |
| Cc1cc(COc2ccccc2)oc1C(=O)O | 24.1 | 2.59 µM [rising, full curve, poor fit] | – |
| O=C(CCN1C(=O)S/C(=C\c2cccs2)C1=O)NC1=NCCS1 | 12.2 | – | 29.1 µM [rising, single point] |

| Compound | cell number change [%] | AC50 [1] | AC50 [2] |
| --- | --- | --- | --- |
| CCCOc1ccc(/C=C/c2c([N+](=O)[O-])c(=O)n(C)c(=O)n2C)cc1 | -13.5 | – | 16.4 µM [falling, single point] |
| C/C(N)=C(/C#N)C(=O)CSc1nc2scc(-c3ccc(F)cc3)c2c(=O)n1C | 1.75 | – | 1.64 µM [rising, partial curve, poor fit] |
| CCCN1CCN(S(=O)(=O)c2ccc3c(c2)OCCO3)CC1 | 6.02 | – | – |
| O=C(Cc1cccs1)Nc1ccccc1 | 11.2 | 7.31 µM [rising, partial curve, poor fit] | 0.58 µM [rising, single point] |
| CCc1nnc(NC(=O)c2cccc(S(=O)(=O)N3CCCCC3)c2)s1 | 5.95 | – | 29.1 µM [rising, single point] |
| O=C(Nc1ccc(N2CCCC2)cc1)c1ccccc1[N+](=O)[O-] | -26.7 | – | 29.1 µM [rising, single point] |
| COc1ccc(OC)c(NC(=O)COC(=O)c2ccc(OC)c(S(=O)(=O)N3CCCC3)c2)c1 | 17.3 | – | 0.00651 µM [rising, full curve, poor fit] |
| O=c1c(Cc2ccc(Cl)cc2)c(O)ccn1Cc1ccccc1 | -18.8 | 2.91 µM [falling, partial curve] | – |
| COc1cccc(CNC(=O)Cc2ccc(NC(=O)C3=C(C)OCCS3)cc2)c1 | -41 | 29.1 µM [falling, single point] | – |
| Cn1c(C(=O)O)c(CC(=O)Nc2ccc3c(c2)OCCO3)c2ccccc21 | 3.45 | – | – |
| CC(=O)NC1=C(Nc2ccc(N(C)C)cc2)C(=O)c2ccccc2C1=O | -13.5 | – | 23.1 µM [falling, single point] |
| CC(C)c1ccc(N2C(=O)CC(NNC(=O)c3ccccc3Cl)C2=O)cc1 (configuration not stated) | -1.69 | – | – |
| Cc1nn2c(c1-c1ccccc1)N=C(c1ccco1)CC2c1ccccc1 (configuration not stated) | 12 | – | 1.84 µM [rising, full curve] |
| COc1ccc(NCC(O)COc2ccc(C(C)(C)C)cc2)cc1 (configuration not stated) | -42.3 | 7.31 µM [falling, partial curve, poor fit] | – |
| CC(C)(C)N1C(=O)[C@H]2[C@@H](c3ccc(Br)cc3)N3C(=O)N(c4cccc(Cl)c4)C(=O)[C@@]3(C)[C@H]2C1=O | -46.1 | 29.1 µM [falling, single point] | 16.4 µM [falling, single point] |
| Cc1c(Cl)cccc1NC(=S)NN1CCOCC1 | -2.07 | – | 1.84 µM [falling, partial curve, poor fit] |
| COc1ccc(/C=N/NC(=O)c2cc(-c3cccn3C)n[nH]2)cc1OC | 8.04 | – | 11.6 µM [rising, partial curve] |
| O=C(CN(C(=O)CCC(=O)Nc1nccs1)c1ccc(F)cc1)NCc1ccccc1 | -2.56 | – | 5.17 µM [rising, single point] |
| C1=C2C[N+]3(CCCC3)CC2Cc2ccc3ccccc3c21 (configuration not stated) | 18.5 | – | 0.651 µM [falling, single point] |

| Compound | cell number change [%] | AC50 [1] | AC50 [2] |
| --- | --- | --- | --- |
| O=C(Nc1ccc(NC(=O)c2ccco2)nc1)c1cccc(F)c1 | 19.8 | – | 0.58 µM [falling, single point] |
| COc1ccc(S(=O)(=O)N2CCOCC2)cc1NC(=O)CSc1nnc(N)s1 | – | 0.517 µM [rising, full curve] | 1.03 µM [rising, partial curve] |
| N#Cc1c(SCc2cccc(Cl)c2)sc(C(=O)c2ccccc2)c1N | 37.6 | 1.46 µM [rising, partial curve, poor fit] | 3.66 µM [rising, partial curve] |
| Cc1nn(C)cc1S(=O)(=O)N1CCN(c2cccc(Cl)c2)CC1 | 21.8 | – | 20 µM [rising, partial curve, poor fit] |
| COc1ccc(Cl)cc1NC(=O)CN(C)C(=O)C1CCN(C(=O)Nc2ccccc2)CC1 | 6.22 | – | – |
| N#C/C(=C\c1cn(-c2ccccc2)nc1-c1cc2ccccc2o1)c1nc2ccccc2[nH]1 | 33 | 4.11 µM [rising, full curve] | 1.3 µM [rising, partial curve] |
| CC(OC(=O)c1ccc2c(=O)n3c(nc2c1)CCC3)C(=O)NC1CCCCC1C (configuration not stated) | -25.2 | – | – |
| CCOc1ccc2c(c1)-c1c(ssc1=S)C(C)(C)N2C(=O)CSC1=NCCS1 | -75.3 | 29.1 µM [falling, single point] | 23.1 µM [falling, single point] |
| CCCCN1C(=O)C(O)=C(C(C)=O)C1c1ccccc1 (configuration not stated) | -45.6 | 16.4 µM [falling, single point] | 14.6 µM [falling, partial curve] |
| Cn1ccnc1SCC(=O)n1c2c(c3ccccc31)CCCC2 | -21.8 | – | 0.58 µM [falling, full curve, poor fit] |
| CC(C)[C@H](NS(=O)(=O)c1ccccc1)C(=O)OCC(=O)N1N=C(c2ccc(Cl)cc2)CC1c1ccco1 (some centres not stated) | 22.1 | 0.0411 µM [rising, full curve, poor fit] | 4.61 µM [rising, full curve] |
| Nc1ccccc1C(=O)/C=C/c1ccc2c(c1)OCO2 | – | – | 2.91 µM [rising, single point] |
| COC(=O)c1cc(S(=O)(=O)NCC2CCN(Cc3ccc(F)cc3)CC2)cn1C | -12.7 | – | – |
| COc1ccc(C(=O)Nc2ccccc2C(=O)N2CCOCC2)cc1Br | -38.8 | 10.3 µM [falling, single point] | 13 µM [falling, partial curve, poor fit] |
| CCN(C(=S)Nc1cccnc1)c1cccc2ccccc12 | -19.1 | – | – |
| CCOC(=O)c1c(C)[nH]c(C(=O)OCCOc2ccccc2C)c1C | -29 | – | 29.1 µM [falling, single point] |
| CCC(C)C(=O)Nc1cc(C(=O)OC)ccc1C(=O)OC (configuration not stated) | 30.2 | 23.1 µM [rising, single point] | 3.66 µM [rising, partial curve] |
| Cc1ccc(S(=O)(=O)CCC(=O)NC2CCCC2)cc1 | 22.5 | – | – |
| CC1(C)CC(=O)/C(=C(\O)c2ccccc2)C(=NCCc2ccccc2)C1 | 5.56 | – | 5.8 µM [rising, partial curve] |

Entries shown so far containing a nitro group on carbon:

| Compound | cell number change [%] | AC50 [1] | AC50 [2] |
| --- | --- | --- | --- |
| CCCOc1ccc(/C=C/c2c([N+](=O)[O-])c(=O)n(C)c(=O)n2C)cc1 | -13.5 | – | 16.4 µM [falling, single point] |
| O=C(Nc1ccc(N2CCCC2)cc1)c1ccccc1[N+](=O)[O-] | -26.7 | – | 29.1 µM [rising, single point] |
